Measurements taken from patent US7371364B2, “Cyclic peptide and imaging compound compositions and uses for targeted imaging and therapy” (Board of Regents, The University of Texas System, priority 2003, dated 2008).
At least one structure is not confirmed: it was looked up by name or label, or the drawing left a doubt.

Assays:
MDA-MB-468 cells = test: In vitro blocking study of Cy5.5-c(KAHWGFTLD)NH2 binding with doxycycline; format: cell-based, human; conditions: doxycycline 10 μM pre-incubated 1 hour, imaging agent 10 μM
U87 cells = test: as above; format: cell-based, human; conditions: increasing concentration of doxycycline

SMILES: C[C@H]1c2cccc(O)c2C(=O)C2=C(O)[C@]3(O)C(=O)C(C(N)=O)=C(O)[C@@H](N(C)C)[C@@H]3[C@@H](O)[C@@H]21 [doxycycline]
- Blocking of binding of Cy5.5-c(KAHWGFTLD)NH2 to MDA-MB-468 cells (MDA-MB-468 cells): blocked binding
- Inhibition of binding of Cy5.5-c(KAHWGFTLD)NH2 to U87 cells (U87 cells): dose-dependent inhibition
